Measurements as given in PMC10294620.
Results are given in words; binding and its absence hold for the method and conditions named. In cells and extracts the contact can be indirect. Here binding means that the protein was enriched with, or labelled near, the bait; the list need not be complete.

By UniProt entry, the sequences of proteins in these tests, tags left out. Where a name states a change or a piece, a line headed by the entry shows the natural chain unless it says otherwise. Residues count along the entry.
UniProt Q8C0J2, residues 1-230: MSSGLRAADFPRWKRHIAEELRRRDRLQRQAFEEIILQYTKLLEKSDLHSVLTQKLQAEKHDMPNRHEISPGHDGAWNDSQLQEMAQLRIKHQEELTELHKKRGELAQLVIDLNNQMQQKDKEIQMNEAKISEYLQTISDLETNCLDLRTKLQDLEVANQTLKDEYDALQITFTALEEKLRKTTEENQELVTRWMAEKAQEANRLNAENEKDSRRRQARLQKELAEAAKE
UniProt O70133: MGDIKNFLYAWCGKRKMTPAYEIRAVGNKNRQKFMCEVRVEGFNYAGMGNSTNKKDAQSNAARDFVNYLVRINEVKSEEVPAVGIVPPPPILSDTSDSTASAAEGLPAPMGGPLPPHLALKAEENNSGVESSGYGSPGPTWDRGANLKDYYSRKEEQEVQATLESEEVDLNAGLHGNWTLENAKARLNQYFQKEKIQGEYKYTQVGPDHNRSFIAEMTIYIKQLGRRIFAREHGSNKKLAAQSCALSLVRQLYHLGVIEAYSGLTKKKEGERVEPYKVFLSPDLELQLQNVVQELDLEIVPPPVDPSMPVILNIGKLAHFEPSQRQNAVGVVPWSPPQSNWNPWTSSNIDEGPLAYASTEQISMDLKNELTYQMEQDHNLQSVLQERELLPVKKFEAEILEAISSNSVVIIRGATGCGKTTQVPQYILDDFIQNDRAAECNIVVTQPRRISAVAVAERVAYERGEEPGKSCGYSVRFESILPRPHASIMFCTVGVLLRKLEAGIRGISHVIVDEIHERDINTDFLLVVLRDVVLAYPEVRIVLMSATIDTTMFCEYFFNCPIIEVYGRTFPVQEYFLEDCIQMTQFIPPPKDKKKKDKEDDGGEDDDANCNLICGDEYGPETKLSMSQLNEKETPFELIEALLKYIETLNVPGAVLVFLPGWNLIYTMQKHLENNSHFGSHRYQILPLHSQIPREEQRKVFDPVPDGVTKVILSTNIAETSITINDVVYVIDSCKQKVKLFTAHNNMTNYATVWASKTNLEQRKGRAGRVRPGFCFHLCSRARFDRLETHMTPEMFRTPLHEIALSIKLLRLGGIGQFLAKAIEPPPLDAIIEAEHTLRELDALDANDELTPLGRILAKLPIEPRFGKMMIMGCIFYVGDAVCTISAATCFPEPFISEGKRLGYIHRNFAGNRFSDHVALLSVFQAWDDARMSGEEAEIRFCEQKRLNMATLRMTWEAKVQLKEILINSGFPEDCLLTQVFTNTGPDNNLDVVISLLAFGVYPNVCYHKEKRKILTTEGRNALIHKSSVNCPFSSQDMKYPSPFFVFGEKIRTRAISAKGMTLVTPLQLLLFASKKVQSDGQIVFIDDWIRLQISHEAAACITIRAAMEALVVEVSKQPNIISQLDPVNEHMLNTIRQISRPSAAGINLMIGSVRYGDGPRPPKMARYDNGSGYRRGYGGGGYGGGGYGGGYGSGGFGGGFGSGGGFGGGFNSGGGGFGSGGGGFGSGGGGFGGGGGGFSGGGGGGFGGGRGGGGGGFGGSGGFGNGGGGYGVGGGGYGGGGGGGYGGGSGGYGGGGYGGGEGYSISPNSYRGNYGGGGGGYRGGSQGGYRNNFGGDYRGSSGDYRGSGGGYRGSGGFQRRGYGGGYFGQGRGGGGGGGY

Biological target: HA tagged 1-230 ATG16L1 truncation mutant (UniProt Q8C0J2)
Experiment: affinity purification with mass spectrometry; lysate of BV2 cells stably expressing HA-ATG16L1 1-230, mock treated or infected with 10 MOI of MNV for 10 h, pulled down on HA beads; partners identified by mass spectrometry

binding | Molecule
binds | DHX9 (endogenous, BV2 cells) (from UniProt O70133 1-1380)
binds | CAPRIN1 (endogenous, BV2 cells) (protein, UniProt Q60865 1-707) MPSATSHSGSGSKSSGPPPPSGSSGSEAAAGAAAPASQHPATGTGAVQTEAMKQILGVIDKKLRNLEKKKGKLDDYQERMNKGERLNQDQLDAVSKYQEVTNNLEFAKELQRSFMALSQDIQKTIKKTARREQLMREEAEQKRLKTVLELQYVLDKLGDDDVRTDLKQGLSGVPILSEEELSLLDEFYKLVDPERDMSLRLNEQYEHASIHLWDLLEGKEKPVCGTTYKALKEIVERVFQSNYFDSTHNHQNGLCEEEEAASAPTVEDQVAEAEPEPAEEYTEQSEVESTEYVNRQFMAETQFSSGEKEQVDEWTVETVEVVNSLQQQPQAASPSVPEPHSLTPVAQSDPLVRRQRVQDLMAQMQGPYNFIQDSMLDFENQTLDPAIVSAQPMNPTQNMDMPQLVCPQVHSESRLAQSNQVPVQPEATQVPLVSSTSEGYTASQPLYQPSHATEQRPQKEPMDQIQATISLNTDQTTASSSLPAASQPQVFQAGTSKPLHSSGINVNAAPFQSMQTVFNMNAPVPPANEPETLKQQSQYQATYNQSFSSQPHQVEQTELQQDQLQTVVGTYHGSQDQPHQVPGNHQQPPQQNTGFPRSSQPYYNSRGVSRGGSRGARGLMNGYRGPANGFRGGYDGYRPSFSNTPNSGYSQSQFTAPRDYSGYQRDGYQQNFKRGSGQSGPRGAPRGRGGPPRPNRGMPQMNTQQVN
